Some of the results follow.
Key:
Assay in all cases: glycan array binding signal (z-score within array); higher = stronger binding
Details in all cases: glycan notation: IUPAC condensed, linker removed
[1] = biological target: Fuc(a1-2)Gal
How it was run: (§1)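 Glycan array data came from 3228 arrays in the Consortium for Functional Glycomics database, and only arrays with an available protein sequence were kept. Glycan names were put into IUPAC-condensed notation, and columns mapping to the same glycan were averaged. The binding signal is a within-array Z-score, averaged across arrays of one protein sequence run at different concentrations or buffers and across linkers. A negative Z-score can be read as non-binding.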

[2] = biological target: Fuc(a1-2)Gal(b1-3)GalNAc
How it was run: as §1

[3] = biological target: Fuc(a1-2)Gal(b1-3)GalNAc(a1-3)[Fuc(a1-2)]Gal(b1-4)Glc
How it was run: as §1

[4] = biological target: Fuc(a1-2)Gal(b1-3)GalNAc(a1-3)[Fuc(a1-2)]Gal(b1-4)GlcNAc
How it was run: as §1

[5] = biological target: Fuc(a1-2)Gal(b1-3)GalNAc(b1-3)Gal
How it was run: as §1

[6] = biological target: Fuc(a1-2)Gal(b1-3)GalNAc(b1-3)Gal(a1-4)Gal(b1-4)Glc
How it was run: as §1

[7] = biological target: Fuc(a1-2)Gal(b1-3)GalNAc(b1-4)[Neu5Ac(a2-3)]Gal(b1-4)Glc
How it was run: as §1

[8] = biological target: Fuc(a1-2)Gal(b1-3)GlcNAc
How it was run: as §1

[9] = biological target: Fuc(a1-2)Gal(b1-3)GlcNAc(b1-2)Man(a1-3)[Fuc(a1-2)Gal(b1-3)GlcNAc(b1-2)Man(a1-6)]Man(b1-4)GlcNAc(b1-4)GlcNAc
How it was run: as §1

[10] = biological target: Fuc(a1-2)Gal(b1-3)GlcNAc(b1-2)Man(a1-3)[Fuc(a1-2)Gal(b1-3)GlcNAc(b1-2)Man(a1-6)]Man(b1-4)GlcNAc(b1-4)[Fuc(a1-6)]GlcNAc
How it was run: as §1

[11] = biological target: Fuc(a1-2)Gal(b1-3)GlcNAc(b1-3)Gal(b1-4)Glc
How it was run: as §1

[12] = biological target: Fuc(a1-2)Gal(b1-3)GlcNAc(b1-3)GalNAc
How it was run: as §1

[13] = biological target: Fuc(a1-2)Gal(b1-3)GlcNAc(b1-3)[Fuc(a1-2)Gal(b1-3)GlcNAc(b1-6)]GalNAc
How it was run: as §1

[14] = biological target: Fuc(a1-2)Gal(b1-3)GlcNAc(b1-3)[Gal(b1-4)GlcNAc(b1-6)]Gal(b1-4)Glc
How it was run: as §1

[15] = biological target: Fuc(a1-2)Gal(b1-3)GlcNAc(b1-3)[Neu5Ac(a2-6)Gal(b1-4)GlcNAc(b1-6)]Gal(b1-4)Glc
How it was run: as §1

[16] = biological target: Fuc(a1-2)Gal(b1-3)GlcNAc6S
How it was run: as §1

[17] = biological target: Fuc(a1-2)Gal(b1-3)[Fuc(a1-4)]GlcNAc
How it was run: as §1

[18] = biological target: Fuc(a1-2)Gal(b1-3)[Fuc(a1-4)]GlcNAc(b1-2)Man(a1-3)[Fuc(a1-2)Gal(b1-3)[Fuc(a1-4)]GlcNAc(b1-2)Man(a1-3)]Man(b1-4)GlcNAc(b1-4)GlcNAc
How it was run: as §1

[19] = biological target: Fuc(a1-2)Gal(b1-3)[Fuc(a1-4)]GlcNAc(b1-2)Man(a1-3)[Fuc(a1-2)Gal(b1-3)[Fuc(a1-4)]GlcNAc(b1-2)Man(a1-6)]Man(b1-4)GlcNAc(b1-4)[Fuc(a1-6)]GlcNAc(b1-4)[Fuc(a1-6)]GlcNAc
How it was run: as §1

[20] = biological target: Fuc(a1-2)Gal(b1-3)[Fuc(a1-4)]GlcNAc(b1-3)[Fuc(a1-3)[Gal(b1-4)]GlcNAc(b1-6)]Gal(b1-4)Glc
How it was run: as §1

[21] = biological target: Fuc(a1-2)Gal(b1-3)[Fuc(a1-4)]GlcNAc(b1-3)[Gal(b1-4)GlcNAc(b1-6)]Gal(b1-4)Glc
How it was run: as §1

[22] = biological target: Fuc(a1-2)Gal(b1-4)Fuc(a1-3)]GlcNAc(b1-2)Man(a1-3)[Fuc(a1-2)Gal(b1-4)[Fuc(a1-3)]GlcNAc(b1-2)Man(a1-6)]Man(b1-4)GlcNAc(b1-4)GlcNAc
How it was run: as §1

[23] = biological target: Fuc(a1-2)Gal(b1-4)Glc
How it was run: as §1

[24] = biological target: Fuc(a1-2)Gal(b1-4)Glc6S
How it was run: as §1

[25] = biological target: Fuc(a1-2)Gal(b1-4)GlcNAc
How it was run: as §1

[26] = biological target: Fuc(a1-2)Gal(b1-4)GlcNAc(b1-2)Man
How it was run: as §1

[27] = biological target: Fuc(a1-2)Gal(b1-4)GlcNAc(b1-2)Man(a1-3)[Fuc(a1-2)Gal(b1-4)GlcNAc(b1-2)Man(a1-6)]Man(b1-4)GlcNAc(b1-4)GlcNAc
How it was run: as §1

[28] = biological target: Fuc(a1-2)Gal(b1-4)GlcNAc(b1-2)Man(a1-3)[Fuc(a1-2)Gal(b1-4)GlcNAc(b1-2)Man(a1-6)]Man(b1-4)GlcNAc(b1-4)[Fuc(a1-6)]GlcNAc
How it was run: as §1

[29] = biological target: Fuc(a1-2)Gal(b1-4)GlcNAc(b1-2)[Fuc(a1-2)Gal(b1-4)GlcNAc(b1-4)]Man(a1-3)[Fuc(a1-2)Gal(b1-4)GlcNAc(b1-2)Man(a1-6)]Man(b1-4)GlcNAc(b1-4)GlcNAc
How it was run: as §1

[30] = biological target: Fuc(a1-2)Gal(b1-4)GlcNAc(b1-3)Gal(b1-4)GlcNAc
How it was run: as §1

B1: OS9-MRH (Homo sapiens), Q13438 (protein)
chain: IPELLSPMRDAPCLLKTKDWWTYEFCYGRHIQQYHMEDSEIKGEVLYLGYYQSAFDWDDETAKASKQHRLKRYHSQTYGNGSKCDLNGRPREAEVRFLCDEGAGISGDYIDRVDEPLSCSYVLTIRTPRLCPHPLLRPPPSAAPQAI
[1]
  glycan array binding signal (z-score): 0.871
[2]
  glycan array binding signal (z-score): -0.509
[3]
  glycan array binding signal (z-score): 0.724
[4]
  glycan array binding signal (z-score): 0.485
[5]
  glycan array binding signal (z-score): 0.513
[6]
  glycan array binding signal (z-score): -0.271
[7]
  glycan array binding signal (z-score): 0.061
[8]
  glycan array binding signal (z-score): 1.35
[9]
  glycan array binding signal (z-score): 0.554
[10]
  glycan array binding signal (z-score): -0.758
[11]
  glycan array binding signal (z-score): 0.221
[12]
  glycan array binding signal (z-score): 0.497
[13]
  glycan array binding signal (z-score): -0.514
[14]
  glycan array binding signal (z-score): -0.798
[15]
  glycan array binding signal (z-score): 0.616
[16]
  glycan array binding signal (z-score): 3.15
[17]
  glycan array binding signal (z-score): -1.22
[18]
  glycan array binding signal (z-score): -1.15
[19]
  glycan array binding signal (z-score): 0.415
[20]
  glycan array binding signal (z-score): 0.3
[21]
  glycan array binding signal (z-score): 0.55
[22]
  glycan array binding signal (z-score): 0.606
[23]
  glycan array binding signal (z-score): -0.321
[24]
  glycan array binding signal (z-score): -0.942
[25]
  glycan array binding signal (z-score): -0.627
[26]
  glycan array binding signal (z-score): -0.95
[27]
  glycan array binding signal (z-score): -0.159
[28]
  glycan array binding signal (z-score): -0.83
[29]
  glycan array binding signal (z-score): -1.2
[30]
  glycan array binding signal (z-score): -1.1

From the supplement of paper PMC8728848
